Test results as given in patent publication US20050267016A1 (priority 2001, published 2005).

Legend:
[1] = general procedure: Fmoc solid-phase peptide synthesis; Wang resin; HBTU, DIEA; conditions: whole synthesis, HPLC method A, 254 nm
[2] = general procedure: Fmoc solid-phase peptide synthesis; Wang's alkoxy resin (0.60 mmol/gm loading); HBTU, DIEA; conditions: for crude HPLC purity: 254 nm

With Fmoc-β-Ala-Ile-Ala-Leu-OH the “crude HPLC purity” value [1] was 92%.
For MeOSuc-βAla-Leu-Ala-Leu-Dox, the “final HPLC purity” value ([2]; purification step, HPLC (method A, method B)) was 96.5%.
Substance Suc-βAla-Leu-Ala-Leu-Dox.Na has a step yield ([2]; late stage modification step, sodium salt) of 87%.
In the case of Fmoc-β-Ala-Ile-Ala-Leu-Dox, the conjugation yield ([2]; conjugation step) is reported as 88% and the “crude HPLC purity” value ([2]; conjugation step, HPLC method A) is reported as 92%.
With Suc-βAla-Ile-Ala-Leu-Dox the step yield ([2]; late stage modification step) was 78% and the “crude HPLC purity” value ([2]; late stage modification step, HPLC method B) was 86%.
